The data set can be described thus: general procedure: Fmoc solid-phase peptide synthesis; HMPA-PEGA resin; MSNT, N-methylimidazole (first residue loading). The settings on record: conjugation step.

Ends that are not written are not given here.

With REEQYCSTYRV, the conjugation yield was 64%.

Source of the values: patent US7851618 (dated 2010).
